In paper PMC12718634:
These are yes or no findings as the source states them, for the method shown. In cells and extracts the contact can be indirect. A yes stands for co-enrichment or nearness to the bait. Other partners may have been found.

Chains of the proteins cited; added tags and fusions are not shown.
UniProt P49023: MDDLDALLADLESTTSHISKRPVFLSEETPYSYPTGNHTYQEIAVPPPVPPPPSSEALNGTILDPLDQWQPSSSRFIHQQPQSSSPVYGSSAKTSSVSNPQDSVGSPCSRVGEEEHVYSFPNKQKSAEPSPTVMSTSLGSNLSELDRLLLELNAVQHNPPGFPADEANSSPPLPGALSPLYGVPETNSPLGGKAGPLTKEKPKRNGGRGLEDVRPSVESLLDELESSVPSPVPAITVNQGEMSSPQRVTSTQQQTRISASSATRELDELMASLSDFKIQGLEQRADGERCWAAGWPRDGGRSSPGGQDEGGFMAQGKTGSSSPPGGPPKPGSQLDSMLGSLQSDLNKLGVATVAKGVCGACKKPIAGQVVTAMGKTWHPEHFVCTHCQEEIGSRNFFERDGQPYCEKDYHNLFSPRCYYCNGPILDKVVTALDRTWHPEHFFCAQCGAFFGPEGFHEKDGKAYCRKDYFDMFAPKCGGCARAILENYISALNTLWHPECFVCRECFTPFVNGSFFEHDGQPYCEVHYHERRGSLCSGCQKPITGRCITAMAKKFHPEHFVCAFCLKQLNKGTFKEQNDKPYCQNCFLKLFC

Biological target: GFP-BirA*-Paxillin (UniProt P49023)
Experiment: proximity labelling; Bio-ID: GFP-BirA*-Paxillin as bait, stably expressed in B16-F1 control and Cyri-b KO cells on laminin; biotin or DMSO for 16 h; biotinylated proteins captured on NeutrAvidin agarose, on-bead digestion, mass spectrometry (label-free quantification)

B1: vinexin (protein, UniProt Q9R1Z8 1-733)
chain: MARILGVGRSSASSLNNKEDNESDVALLSPKDPNRVHTKEQLAHPASSNLDPSMQGLPAGLSLDDFIPGHLRTHIGSSSRGTRVPVIRNGGSNTLNFQFHDPAPRTVCNGCPPPRRDGSLNPDPAWYQTWPGPGSRPSMSPKPPASQHAQNWSATWTKDSKRQDKRWVKYEGIGPVDESGMPIAPRSSVDSPRDWYRRMFQQIHRKMPDLQLDWTLEDPPKVVSARASSAEPRHLGTLQRPASRPGTTETSSGRNWNHSEETSRNTFNYNFRPSSSGLHPPNQVPRHREKVENVWTEDSWNQFLHELETGHKPKKPLVDDPVEKPAQPIEVLLERELAKLSAELDKDLRAIETRLPSPKNSQAPRRPLEQPGLEQQPSARLSSAWRPNSPHAPYFSSSRPLSPHRMADGGGSPFLGRRDFVYPSSAREPSASERGSSPSRKEEKKRKAARLKFDFQAQSPKELSLQKGDIVYIHKEVDKNWLEGEHHGRLGIFPANYVEVLPADEIPKPIKPPTYQVLEYGDAVAQYTFKGDLEVELSFRKGERICLIRKVNEHWYEGRITGTGRQGIFPASYVQINREPRLRLCDDGPQLPASPNPTTTAHLSSHSHPSSIPVDPTDWGGRTSPRRSAFPFPITLQEPRSQTQSLNTPGPTLSHPRATSRPINLGPSSPNTEIHWTPYRAMYQYRPQNEDELELREGDRVDVMQQCDDGWFVGVSRRTQKFGTFPGNYVAPV
  binding: binds

B2: Kank2 (protein, UniProt Q8BX02 1-843)
chain: MAQVLHVPAPFPGTPGQASPAAFPSKEPDPPYSVETPYGYRLDLDFLKYVDDIEKGHTLRRVAVQRRPRLGSLPRGPGSWWTSTESLCSDASGDSRHSAYSYCGRGFYPQYGALETRIGSNPRVERTLLDARRRLEDQAAAPSSGGLGSLTPSAAGSTSSLAGVGLLPPTPRSSGLSTPVAPSAGHLAHVREQMAGALRKLRQLEEQVKLIPVLQVKLSVLQEEKRQLTVQLKSQKFLGHPSGTRSRSELCLDLPEAPDDPAALETRSVGTWVRERDLGIPDGEAALVAKVAVLETQLKKALQELRAAQTQQVDLQPQAWPPPDTQVRVDTVRVVEGPREVEVAASTAAGALAQRAQSLEPYGTGLKALTTSGGPENTLVFRSHEVVETMCPLPTATTGNVHTAKKISITERSCTGAPRMTEPSSVNPRPAAASVVQPENPVPAAQDTTDKKPTRPAAASQDSQAADGAGRASLATKRKEDPADPEVNQRNLQFVGVNGGYESPSEDSSTAENSEHESTENEGPEPPARVLSPAECPQLRPPGAAVATTSLEGPQLSQESQRVPAPEVASGPDPEEEIRMDLSPDLISACLALEKYLENPNALTERELKVAYTTVLQEWLRLACRSDAHPELVRRHLVTFRAMSARLLDYVVNIADSNGNTALHYSVSHANFPVVRQLLDSGVCHVDKLNRAGYSPIMLTALATLKTQDDIETILQLFRLGNVNAKASQAGQTALMLAVSHGRVDVVRALLACEADVNIQDEDGSTALMCACEHGHKEITGLLLAVPSCDISLTDRDGSTALMVALDAGQSEIASMLYSRMNIKCSFAPMSDYESPASSSAEE
  binding: binds

B3: GIT1 (protein, UniProt Q68FF6 1-770)
chain: MSRKGPRAEVCADCSAPDPGWASISRGVLVCDECCSVHRSLGRHISIVKHLRHSAWPPTLLQMVHTLASNGANSIWEHSLLDPAQVQSGRRKANPQDKVHPIKSEFIRAKYQMLAFVHKLPCRDDDGVTAKDLSKQLHSSVRTGNLETCLRLLSLGAQANFFHPEKGTTPLHVAAKAGQTLQAELLVVYGADPGSPDVNGRTPIDYARQAGHHELAERLVECQYELTDRLAFYLCGRKPDHKNGHYIIPQMADRSRQKCMSQSLDLSELAKAAKKKLQALSNRLFEELAMDVYDEVDRRENDAVWLATQNHSTLVTERSAVPFLPVNPEYSATRNQGRQKLARFNAREFATLIIDILSEAKRRQQGKSLSSPTDNLELSARSQSELDDQHDYDSVASDEDTDQEPLPSAGATRNNRARSMDSSDLSDGAVTLQEYLELKKALATSEAKVQQLMKVNSSLSDELRRLQREIHKLQAENLQLRQPPGPVPPPSLPSERAEHTLMGPGGSTHRRDRQAFSMYEPGSALKPFGGTPGDELATRLQPFHSTELEDDAIYSVHVPAGLYRIRKGVSASSVPFTPSSPLLSCSQEGSRHASKLSRHGSGADSDYENTQSGDPLLGLEGKRFLELSKEDELHPELESLDGDLDPGLPSTEDVILKTEQVTKNIQELLRAAQEFKHDSFVPCSEKIHLAVTEMASLFPKRPALEPVRSSLRLLNASAYRLQSECRKTVPPEPGAPVDFQLLTQQVIQCAYDIAKAAKQLVTITTREKKQ
  binding: binds

B4: β-PIX (protein, UniProt Q9ES28 1-862)
chain: MNSAEQTVTWLITLGVLESPKKTISDPEVFLQASLKDGVVLCRLLERLLPGTIEKVYPEPRNESECLSNIREFLRACGASLRLETFDANDLYQGQNFNKVLSSLVTLNKVTADIGLGSDSVCARPSSHRIKSFDSLGSQSSHSRTSKLLQSQYRSLDMTDNTNSQLVVRAKFNFQQTNEDELSFSKGDVIHVTRVEEGGWWEGTHNGRTGWFPSNYVREIKPSEKPVSPKSGTLKSPPKGFDTTAINKSYYNVVLQNILETEHEYSKELQSVLSTYLRPLQTSDKLSSANTSYLMGNLEEISSFQQVLVQSLEECTKSPEAQQRVGGCFLSLMPQMRTLYLAYCANHPSAVSVLTEHSEDLGEFMETKGASSPGILVLTTGLSKPFMRLDKYPTLLKELERHMEDYHPDRQDIQKSMTAFKNLSAQCQEVRKRKELELQILTEPIRSWEGDDIKTLGSVTYMSQVTIQCAGSEEKNERYLLLFPNLLLMLSASPRMSGFIYQGKLPTTGMTITKLEDSENHRNAFEISGSMIERILVSCTSQQDLHEWVEHLQKQTKVTSVSNPTIKPHSVPSHTLPSHPLTPSSKHADSKPVALTPAYHTLPHPSHHGTPHTTISWGPLEPPKTPKPWSLSCLRPAPPLRPSAALCYKEDLSKSPKTMKKLLPKRKPERKPSDEEFAVRKSTAALEEDAQILKVIEAYCTSAKTRQTLNSTWQGTDLMHNHVLADDDQSSLDSLGRRSSLSRLEPSDLSEDSEYDSIWTAHSYRMGSASRSRKESAPQVLLPEEEKIIVEETKSNGQTVIEEKSLVDTVYALKDEVQELRQDNKKMKKSLEEEQRARKDLEKLVRKVLKNMNDPAWDETNL
  binding: binds

B5: Shroom2 (protein, UniProt A2ALU4 1-1481)
chain: MEGAEPRARPERLAEAEAPATDGVRLVEVQLSGGAPWGFTLKGGREHGEPLVITKIEEGSKAAAVDKLLAGDEIVAINDVSLSGFRQEAICLVKGSHKTLKLVVKRKSDPSWRPHSWHATKYFDVHPEPAASLFLNTSGSPSWKSQHQASSSSHDLSGSWEHTSLQRTSDHFSSMGSIDSLDHSSQLYPSGHLSSAKSNSSIDHLGGHSKRDSAYGSFSTCSSTPDHTLPKADASSTENILYKVGLWEASRPGSSRQSQSTGDPQGLQDRPSCFIPRVPGNSSKSPRPEDNVEPKIATHGRSNFGPVWYVPDKKKAPSPPPLGLPLRSDSFSVAARGHEKARGPPFSDLASMQHFITLPHVQPRGDHRMETTDRQWKLTHLSSGKEIGNVGYQSEGHLDCRWLCSDDRAGRPSGPPGRLQFSDVHFLKSYHGSQHQQQCSDESPRAPSSPRELLHITPGGGLQEPPEPSQDDNPTQVRWPGSAHQKLDDRGRSHYFPGSLRQPVQGSAQVVIPRGDYWHSDTTPVDLEYPLLRPVGQRTYLQQHEETPASHEKEGYHQLNAGIEGCCSGIQEPPRASRTVRTGLQCPSNDFKLVDGESGRISRQRTPMLHSLTQDGTWRPGNSKDCGNDKPPLFDAQVGKPTRRSDRFATTLRNEIQMRRAKLQKSKSTVTLAGDSEAEDCAGDWRADVGAVPEGSFPSTYKEHLKEAQTRVLKATSFQRRDLDPTPADQYSGPSEHRTFDHSASSSLSSFPGEPDSAPRFCETGLAKAPSSGVGVPHVLRIGGRKRFTAEQKLKSYSEPEKINEVGLSGDHRPHPTVRTPEDTVGTFADRWKFFEETSKSLLQKAGHRQVHCGLPREKAERPQTGHHECESTEPWFQKRSLATSCGEILSDRKVEKASEKLNPPRRLGTFAEYQASWKEQKKPLEARSSGRYHSADDILDAGLDQQQRPQYIHERSRSSPSTDHYSQEVPVEPNRQAEDSGDHKEAILCTLQAEEGCSAPSAQPQDSQHVNEDTTFPQPETQLSSKCQHLQTSAMETSRSPSPQFAPQKLTDKPPLLIHEDNSARIERVMDNNTTVKMVPIKIVHSESQPEKESRQSLACPAELPPLPSGLERDQIKTLSTSEQCYSRFCVYTRQEVEAPHRARPPEPRPPSTPAPPVRDSCSSPPSLNYGKAKEKTMDDLKSEELAREIVGKDKSLADILDPSVKIKTTMDLMEGIFPKDEYLLEEAQQRRKLLPKVPLPRVTEDKKQDPGMPGVVSLATNSTYYSTSAPKAELLIKMKDLQEPEEYSAGDLDHDLSVKKQELIDSISRKLQVLREARESLLEDIQANNALGDEVEAIVKDVCKPNEFDKFRMFIGDLDKVVNLLLSLSGRLARVENALNNLDDNPSPGDRQSLLEKQRVLTQQHEDAKELKENLDRRERIVFDILATYLSEENLADYEHFVKMKSALIIEQRELEDKIHLGEEQLKCLFDSLQPERSK
  binding: binds

B6: Shroom4 (protein, UniProt Q1W617 1-1475)
chain: MESRPGSFQYVPVQLQGGAPWGFTLKGGLEHCEPLTVSKIEDGGKAALSQKMRTGDELVNINGTPLYGSRQEALILIKGSFRILKLIVRRRNTPVSRPHSWHVAKLLEGCPDVATTMHFPSEAFSLSWHSGCNTSDVSVQWCPLSRHCSTEKSSSIGSMESLEQPGQPTYEGHLLPIDQNMYPSQRDSAYSSFSASSNASDCALSLKPEEPPSTDCVMPGPGPIKVTDDQANVSENSGSSHSTSEDHVTSTSHASSYSDEGHHSGPAKMARGPPEPPVRSDSLPASRAQLLNGEQHRASEPVDSLPQKEKPGLETVLPPRSSNQFCCLSGQDQVTDEDHQNCELSKPSESSQDDCEHLLIEDSSKALDSPKAHDKGSNKEFGLLKEASADLANTLNFGAIPHLRGTMEHRHSAPEQLLASHLQQVHLDSRGSKGMELPIGQDGHQWTVSPLHNNPKGKKSPSLPTGGTQDQTRKERKTTPLDDKLMASVHQSQSDVLLGEVDGHPNRAGRASSDLTSQQPSATCSSVQQTRDFLSAHKIVDHTEASEEGDNEPKECGRLGGRRSGGPRGRSIQNRRRSERFATNLRNEIQRRKAQLQKSKGPLSQLCDTNEAVEETQEPPESPPLSASNASLLPSYKNVPSPGDKVFNKSMILRARSSECLSQASESSKARGGVEGRMSPGQRSGQSSLALNTWWKASDSSTLDTEKANAHHGVCRGHWRWSPEHNAQPQVALSTEAPSNPDDSKELKTSTPQAGEEAVLMPFADRRKFFEESSKSLSTSHLPGLTTHNNKPFIQRQKPIDQNFQSVSYRDLRCHPLDQSYHSADQSYHAADQSYHSLSPLQSETPTYPECFATKGRDNSLCCKPVHHGDCDYHRTCSHPCSAQGTVRHDPCICCSGEICPALLKRNLLPKCHNCRCHHHQCIRCTGCCHGPQHSAHEDSSMAPGNAWKSRKAAIQEFPVDKWKPITGNRKTSHSGREMAHSKAGFSLSTPFRPCIENPALDLSNYRAVSSLDILGDFKRASNKPEESSVYEDENSVASMPRPLRSRAFSESHISLEPQNTQAWGKHQRESFSKGSETQPDTLGARKKVFPPPRPPPPNWEKYRLFRAAQLQQQQQQQQQQQQQQRCEEEEEKEQEEEGEKEEDLPPQYFSSELTGSCAPNTEEQPQSLKMGHQEASRQGSQSLQEQEAFALHPSNFVPPVRGCTVPQPEKAQHPCYYGTHGLWRTTEQEATVTPKQEFQHFSPPKGASGIPTSYSAYYNISVAKAELLNKLKQQPEMAEAGLGEEGVDYELAQKKIQLIESISRKLSVLREAQRGLLDDINANAALGEEVEANLKAVCKSNEFEKYHLFIGDLDKVVNLLLSLSGRLARVENALNSIDSESNQEKLVLIEKKQQLTNQLADAKELKEHVDGREKLVFGMVSRYLPQDQLQDYQHFVKMKSALIIEQRELEEKIKLGEEQLKCLKESLHLGPSNF
  binding: binds
